Data as given in PMC8133776.
These are yes or no findings as the source states them, for the method shown. Binding seen in cells or lysates may run through a third protein. For part of these data: Binding calls can cover weak binding; strength is not graded here. For part of these data: Where a sequence is shown, tags or fusion partners need not be part of it.

Chains of the proteins cited; added tags and fusions are not shown. Lines headed by an entry give the natural chain unless they say otherwise; changes in a name come on top.
UniProt Q9W4W2: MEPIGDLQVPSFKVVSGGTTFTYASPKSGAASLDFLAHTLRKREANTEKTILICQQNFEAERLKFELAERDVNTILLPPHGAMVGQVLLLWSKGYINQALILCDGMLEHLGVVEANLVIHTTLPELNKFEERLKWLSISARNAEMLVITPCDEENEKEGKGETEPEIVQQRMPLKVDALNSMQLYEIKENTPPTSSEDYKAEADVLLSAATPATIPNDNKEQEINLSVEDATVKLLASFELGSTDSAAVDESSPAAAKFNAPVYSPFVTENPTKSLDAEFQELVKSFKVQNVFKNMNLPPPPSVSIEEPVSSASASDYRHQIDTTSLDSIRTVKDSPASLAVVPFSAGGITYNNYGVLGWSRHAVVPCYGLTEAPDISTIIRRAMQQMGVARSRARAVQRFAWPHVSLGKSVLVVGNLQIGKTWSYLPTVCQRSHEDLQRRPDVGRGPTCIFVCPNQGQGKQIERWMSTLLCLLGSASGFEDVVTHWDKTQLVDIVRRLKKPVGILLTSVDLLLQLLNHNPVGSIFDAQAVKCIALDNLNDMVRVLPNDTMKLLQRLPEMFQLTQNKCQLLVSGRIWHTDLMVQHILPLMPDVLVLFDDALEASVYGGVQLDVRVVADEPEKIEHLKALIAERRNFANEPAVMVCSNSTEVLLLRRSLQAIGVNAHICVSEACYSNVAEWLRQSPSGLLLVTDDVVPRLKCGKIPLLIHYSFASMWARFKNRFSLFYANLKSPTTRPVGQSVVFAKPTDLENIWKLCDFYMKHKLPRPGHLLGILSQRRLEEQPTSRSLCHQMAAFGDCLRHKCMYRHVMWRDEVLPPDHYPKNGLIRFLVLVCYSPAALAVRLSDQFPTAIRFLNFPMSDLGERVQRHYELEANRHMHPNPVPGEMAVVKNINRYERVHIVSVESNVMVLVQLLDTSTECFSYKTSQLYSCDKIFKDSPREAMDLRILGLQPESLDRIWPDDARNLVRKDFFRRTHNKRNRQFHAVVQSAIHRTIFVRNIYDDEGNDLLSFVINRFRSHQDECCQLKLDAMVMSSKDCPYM
UniProt Q9U1H9: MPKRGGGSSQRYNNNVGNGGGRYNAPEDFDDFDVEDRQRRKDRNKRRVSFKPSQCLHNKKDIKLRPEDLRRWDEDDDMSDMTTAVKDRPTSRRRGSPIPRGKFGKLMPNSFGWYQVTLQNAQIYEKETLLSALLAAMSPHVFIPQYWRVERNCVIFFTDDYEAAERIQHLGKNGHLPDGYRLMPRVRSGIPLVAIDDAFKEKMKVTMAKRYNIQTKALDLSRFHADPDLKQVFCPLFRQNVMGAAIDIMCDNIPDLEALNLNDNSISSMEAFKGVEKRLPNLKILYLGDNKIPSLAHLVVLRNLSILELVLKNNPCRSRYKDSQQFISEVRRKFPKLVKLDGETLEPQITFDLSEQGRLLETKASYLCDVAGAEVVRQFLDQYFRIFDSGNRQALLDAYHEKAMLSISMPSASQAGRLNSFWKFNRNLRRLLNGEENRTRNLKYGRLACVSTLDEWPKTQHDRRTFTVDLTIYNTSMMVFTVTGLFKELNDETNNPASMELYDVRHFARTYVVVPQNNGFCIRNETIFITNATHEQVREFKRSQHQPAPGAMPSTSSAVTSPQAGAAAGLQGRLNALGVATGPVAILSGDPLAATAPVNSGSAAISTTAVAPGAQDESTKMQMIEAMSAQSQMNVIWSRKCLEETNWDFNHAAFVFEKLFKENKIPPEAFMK

What was measured:
[1] = target: 3xFLAG-Yb (Drosophila melanogaster) (UniProt Q9W4W2); experiment: co-IP; OSCs transfected with 3xFLAG- and HA-tagged constructs, Pierce IP lysis buffer; anti-FLAG M2 magnetic beads overnight at 4°C, washes in TBS; western blot; also with RNase I treatment and with knockdown of endogenous Yb
[2] = target: T1, 3xFLAG-tagged Nup54 (Drosophila melanogaster) (UniProt Q9V6B9); experiment: co-IP; S2 cells transfected with 3xFLAG- and HA-tagged constructs, lysed after 48 hr in Pierce IP lysis buffer; anti-FLAG M2 magnetic beads overnight at 4°C, washes 3 x 15 min in TBS; western blot
T1 sequence: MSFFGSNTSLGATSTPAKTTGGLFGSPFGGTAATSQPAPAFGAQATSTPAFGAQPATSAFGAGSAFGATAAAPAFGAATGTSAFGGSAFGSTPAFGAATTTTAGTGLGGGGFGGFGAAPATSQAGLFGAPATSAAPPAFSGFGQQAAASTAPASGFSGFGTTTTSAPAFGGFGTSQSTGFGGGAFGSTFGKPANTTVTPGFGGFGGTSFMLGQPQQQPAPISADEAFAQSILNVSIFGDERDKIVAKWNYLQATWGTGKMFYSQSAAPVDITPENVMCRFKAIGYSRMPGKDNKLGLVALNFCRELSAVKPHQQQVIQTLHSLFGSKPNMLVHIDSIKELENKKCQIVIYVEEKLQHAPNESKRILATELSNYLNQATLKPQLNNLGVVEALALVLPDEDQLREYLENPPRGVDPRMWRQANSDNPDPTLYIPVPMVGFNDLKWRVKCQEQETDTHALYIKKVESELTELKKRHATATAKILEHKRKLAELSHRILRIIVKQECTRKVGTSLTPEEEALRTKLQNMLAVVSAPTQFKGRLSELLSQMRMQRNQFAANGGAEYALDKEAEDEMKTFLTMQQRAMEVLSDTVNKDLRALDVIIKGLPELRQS

[3] = target: T2, 3xFLAG-tagged Nup58 (Drosophila melanogaster) (UniProt Q9VDV3); experiment: as above
T2 sequence: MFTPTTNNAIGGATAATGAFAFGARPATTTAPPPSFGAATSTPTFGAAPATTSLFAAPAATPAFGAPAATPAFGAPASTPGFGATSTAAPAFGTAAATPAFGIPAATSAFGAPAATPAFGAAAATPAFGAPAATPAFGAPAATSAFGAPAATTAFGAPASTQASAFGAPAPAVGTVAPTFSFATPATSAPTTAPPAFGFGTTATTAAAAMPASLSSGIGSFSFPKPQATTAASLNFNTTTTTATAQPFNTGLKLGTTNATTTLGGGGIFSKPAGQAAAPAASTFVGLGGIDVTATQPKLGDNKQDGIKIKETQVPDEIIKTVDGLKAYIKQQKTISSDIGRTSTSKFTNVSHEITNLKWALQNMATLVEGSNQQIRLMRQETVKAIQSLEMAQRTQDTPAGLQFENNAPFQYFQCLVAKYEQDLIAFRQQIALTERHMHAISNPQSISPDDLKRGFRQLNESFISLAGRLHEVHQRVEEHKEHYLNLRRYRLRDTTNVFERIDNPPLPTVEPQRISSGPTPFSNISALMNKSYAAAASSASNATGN

[4] = target: T1, 3xFLAG-tagged Nup54 (Drosophila melanogaster); experiment: co-IP; OSCs transfected with 3xFLAG- and HA-tagged constructs, Pierce IP lysis buffer; anti-FLAG M2 magnetic beads overnight at 4°C, washes in TBS; western blot; also with RNase I treatment and with knockdown of endogenous Yb
[5] = target: T2, 3xFLAG-tagged Nup58 (Drosophila melanogaster); experiment: as above

Substance	binding [1]	binding [2]	binding [3]	binding [4]	binding [5]
HA-tagged Yb (Drosophila melanogaster)	–	binds	binds	binds	binds
Nup58 lacking the C-terminal domain (∆C) (Drosophila melanogaster) (domain or fragment)	–	no binding	–	–	–
Yb with deletion of the HelC domain (Drosophila melanogaster)	–	–	–	binds	binds

Continued, values first:

binding [1]	binding [2]	binding [3]	binding [4]	binding [5]	Substance
no binding	–	–	–	–	HA-tagged Nxf1 (from UniProt Q9U1H9 1-672)
–	–	no binding	–	–	Nup54 lacking the C-terminal domain (∆C) (Drosophila melanogaster) (domain or fragment)
